Source: publication PMC7819943, “Rice protein-binding microarrays: a tool to detect cis-acting elements near promoter regions in rice”
The other results are listed elsewhere or left out.

The sequences below were run against T1, OsSMF1 (Oryza sativa, UniProt Q6ZLB0 1-436) (assay: protein-binding microarray (RPBM); PBS, 2% BSA, 51.3 ng/ul salmon testes DNA, 50 uM zinc acetate, 200 nM TF, 25 C, 1 h; high values mean tight binding). Settings: protein: recombinant; tags: N-terminal polyhistidine and DsRed monomer fusion (pET32a); chain copies: 2; label: CyDye5-dUTP incorporated in the synthesized complementary strand; 3' TTTTT single-stranded linker to array surface; dsDNA, one strand shown.
T1 sequence: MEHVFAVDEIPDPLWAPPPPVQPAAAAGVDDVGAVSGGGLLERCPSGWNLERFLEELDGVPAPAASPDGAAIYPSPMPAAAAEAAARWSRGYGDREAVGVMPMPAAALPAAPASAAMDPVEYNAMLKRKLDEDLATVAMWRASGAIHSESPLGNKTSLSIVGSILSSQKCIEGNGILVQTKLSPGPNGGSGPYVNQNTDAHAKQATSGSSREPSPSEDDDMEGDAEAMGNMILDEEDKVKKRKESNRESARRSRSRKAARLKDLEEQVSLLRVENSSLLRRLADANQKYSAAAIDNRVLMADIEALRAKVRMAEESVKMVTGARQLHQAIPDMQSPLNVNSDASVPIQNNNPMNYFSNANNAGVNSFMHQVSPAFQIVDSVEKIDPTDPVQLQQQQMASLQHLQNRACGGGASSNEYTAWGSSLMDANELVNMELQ
In short: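 Transcription factors were each fused at the N-terminus to a polyhistidine tag plus DsRed and expressed in E. coli BL21-CodonPlus before Ni–NTA purification. Binding to a double-stranded custom Agilent array was carried out with 200 nM protein at 25 °C for 1 h in PBS, 2% BSA, salmon testes DNA and 50 µM zinc acetate. The binding signal is per-feature fluorescence intensity, in arbitrary units, on an Axon 4000B scanner.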
For “CCCATCTCACCAGTGACGTGCTTCTTCATCATCCCTATATCGGAGTCACCTAGTGCAG”, the binding signal was 6700 fluorescence intensity (a.u.). “TTGGATGTTCTTCCCGTTGTTGTGTTTTATCATGTGCCTTCGGAGTCACCTAGTGCAG” was tested, and the binding signal was 3330 fluorescence intensity (a.u.). For “TAATGGGGCATATTCGTGGGTGTGTAAGTATAACGTTATACGGAGTCACCTAGTGCAG”, the binding signal was 3960 fluorescence intensity (a.u.). “GCTGGGCCGTCAGCCCACACGTGCGAGTCACGGGCCCACGCGGAGTCACCTAGTGCAG” was tested, and the binding signal was 4500 fluorescence intensity (a.u.). In the case of “GACCGAGACTCCCTGACTTGGCGCCAGGCAAAACCACCATCGGAGTCACCTAGTGCAG”, the binding signal is reported as 4230 fluorescence intensity (a.u.). “CATGCTGCCAACTCTGCAATTCTGATGTCCATTGCCAATCCGGAGTCACCTAGTGCAG” was tested, and the binding signal was 4420 fluorescence intensity (a.u.). In the case of “TCCTGCCTCCTCCCGAAATTCGCAAGTGTCACTAGTTAACCGGAGTCACCTAGTGCAG”, the binding signal is reported as 3420 fluorescence intensity (a.u.). “CCGTCAGATTCCGCCGCCACTATTATCGTCTTCCTCAAGTCGGAGTCACCTAGTGCAG” was tested, and the binding signal was 3500 fluorescence intensity (a.u.). In the case of “AACATACGGTCCGACGCGTGTATTGCCCTGCATCCGGTTCCGGAGTCACCTAGTGCAG”, the binding signal is reported as 3230 fluorescence intensity (a.u.). In the case of “CGATTGAGCTGAAGACGTACGCATATGCTTCCGCGCGAACCGGAGTCACCTAGTGCAG”, the binding signal is reported as 3220 fluorescence intensity (a.u.). In the case of “GAACAAGAAGGAGACTGATTCATTCATACATGGCGGGGCTCGGAGTCACCTAGTGCAG”, the binding signal is reported as 26200 fluorescence intensity (a.u.). With “CAGTAATGTGAGCTATGACTGTGTGACAGAAACCCACGGTCGGAGTCACCTAGTGCAG” the binding signal was 3790 fluorescence intensity (a.u.). For “CCCCGTCCTCCGGCAGCGGGTTCGACGTCATCAGGTGCGACGGAGTCACCTAGTGCAG”, the binding signal was 8820 fluorescence intensity (a.u.). With “ATGGACGACGCCACGAGCTCGCTCTCACACGCGCCATCAGCGGAGTCACCTAGTGCAG” the binding signal was 3360 fluorescence intensity (a.u.). For “TGATTACGTAATTTTCATTTAACAAAACTAATTGTCAAACCGGAGTCACCTAGTGCAG”, the binding signal was 13900 fluorescence intensity (a.u.). With “CAGCTGATGAATGGTCATTGCCATTGGTGACCAACCAGGTCGGAGTCACCTAGTGCAG” the binding signal was 3990 fluorescence intensity (a.u.). For “TCTCCACGCCGGCGCCACGGCGACGCCTTTCCCCTTCTCCCGGAGTCACCTAGTGCAG”, the binding signal was 4950 fluorescence intensity (a.u.). For “GAGATGCGATCGAATGTTAGTCGTACGTCATGGTCGTATACGGAGTCACCTAGTGCAG”, the binding signal was 6980 fluorescence intensity (a.u.). For “GCCGAATTATTGGGCGCCCACGAACCGCACATGTGGGATGCGGAGTCACCTAGTGCAG”, the binding signal was 3290 fluorescence intensity (a.u.). With “CCTACACCGTTGCAACACGCGTCAAACTTGCTCGATCTCTCGGAGTCACCTAGTGCAG” the binding signal was 3750 fluorescence intensity (a.u.). With “CATCGTCACCGCCACCACCACCACGTCCTCCTCAAGGTCTCGGAGTCACCTAGTGCAG” the binding signal was 7250 fluorescence intensity (a.u.). With “GAGAGAGAGAGAGAGAGGAGGCAGCTTGCTCCACACGCCTCGGAGTCACCTAGTGCAG” the binding signal was 5650 fluorescence intensity (a.u.). “CATATTATAAAATGTTGTGCTAATTATTATCGGTGTATATCGGAGTCACCTAGTGCAG” was tested, and the binding signal was 22300 fluorescence intensity (a.u.).
